Source: patent US20150258217A1 (THE GENERAL HOSPITAL CORPORATION, priority 2012, published 2015)

Legend:
[1] = general procedure: Fmoc solid-phase peptide synthesis; Rink Amide MBHA resin; PyBOP/DiPEA; conditions: conjugation step
[2] = general procedure: Fmoc solid-phase peptide synthesis; Rink Amide MBHA; PyBOP/DiPEA; conditions: whole synthesis, scale 0.15 mmol

Row | Substance | conjugation yield [1] | isolated yield [2] [%]
1 | DOTA-Lys(CyAL5.5)-Lys(5 kDa PEG)- βAla - Lys(N3)-NH2 | >90% | –
2 | DOTA-Lys(CyAL5.5)-Lys(5 kDa PEG)- βAla -Lys(sPEG-RGD) | >90% | –
3 | DOTA-Lys(CyAL5.5)-Lys(NH2)-β-Ala-Lys(N3)—NH2 | – | 40
4 | DOTA-Lys(CyAL5.5)-Lys(NH2)-β-Ala-Lys(N3-DBCO-PEG4-cRGD)-NH2 | ˜99% | –
